{"source": "PubChem BioAssay AID504791 | Drosophila RNAi Screening Center | 2011", "purpose": "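Genes of the fly required for silencing by miRNA, siRNA or endo-siRNA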 (primary screen)", "cell system": "Drosophila S2-derived reporter cells", "reagent": "long dsRNA against Drosophila genes, about 150-250 ng dsRNA per well (siRNA assay); about 80-120 ng (miRNA assay)", "time to read-out": "about 5 days (siRNA assay); about 4 days (miRNA assay)", "treatment": "copper sulfate induction of reporters: 25 µM (siRNA assay); 200 mM stated (miRNA assay), 1-2 days before reading", "measured": "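Dual luciferase assay: Renilla to firefly signal ratio in each well, scaled to the mean ratio of its plate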", "units": "stable assay Renilla, run 1 in luminescence; stable assay firefly, run 1 in luminescence", "rule for the call": "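a well was a first-pass pick when its plate-scaled ratio rose above 1.5 (siRNA assay) or 1.6 (miRNA assay), or dropped below 0.6; a gene counted only if two separate dsRNAs agreed on retest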", "note": "The deposit covers about 23,000 reagents; shown is an unselected part of those with a known target gene and a result. Of all reagents, 199 (0.86%) got an active call. 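Plate-scaled ratios behind the calls are not deposited; printed light signals are raw; many rows marked increased or decreased are still called inactive.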 Entries without a mark were called inactive. Names joined by + are all predicted targets of the reagent. Reagent sequences are not shown. The record does not give: the direction of the score."}
{"gene knocked down": "CG13978", "dsRNA": "DRSC14720", "stable assay Renilla, run 1": 5960, "stable assay firefly, run 1": 4.00e5}
{"gene knocked down": "Irk3", "dsRNA": "DRSC02047", "stable assay Renilla, run 1": 7291, "stable assay firefly, run 1": 5.44e5}
{"gene knocked down": "Smg5", "dsRNA": "DRSC03124", "stable assay Renilla, run 1": 9647, "stable assay firefly, run 1": 1.27e6}
{"gene knocked down": "su(w[a])", "dsRNA": "DRSC18840", "stable assay Renilla, run 1": 8650, "stable assay firefly, run 1": 4.94e5}
{"gene knocked down": "Mst57Da", "dsRNA": "DRSC16744", "stable assay Renilla, run 1": 8675, "stable assay firefly, run 1": 4.16e5}
{"gene knocked down": "Hrb27C", "dsRNA": "DRSC03347", "stable assay Renilla, run 1": 12672, "stable assay firefly, run 1": 4.75e5}
{"gene knocked down": "Vav", "dsRNA": "DRSC20384", "miRNA reporter change": "reporter ratio lowered past the hit cutoff", "stable assay Renilla, run 1": 5854, "stable assay firefly, run 1": 5.10e5}
{"gene knocked down": "janB", "dsRNA": "DRSC16973", "stable assay Renilla, run 1": 5987, "stable assay firefly, run 1": 4.79e5}
{"gene knocked down": "CtsL4", "dsRNA": "DRSC02849", "stable assay Renilla, run 1": 6979, "stable assay firefly, run 1": 2.92e5}
{"gene knocked down": "mtsh", "dsRNA": "DRSC03070", "stable assay Renilla, run 1": 7206, "stable assay firefly, run 1": 3.51e5}
{"gene knocked down": "Mst33A", "dsRNA": "DRSC03371", "stable assay Renilla, run 1": 6856, "stable assay firefly, run 1": 3.92e5}
{"gene knocked down": "Vps50", "dsRNA": "DRSC06910", "stable assay Renilla, run 1": 10030, "stable assay firefly, run 1": 3.32e5}
{"gene knocked down": "CG2162", "dsRNA": "DRSC08557", "stable assay Renilla, run 1": 8845, "stable assay firefly, run 1": 3.74e5}
{"gene knocked down": "ich", "dsRNA": "DRSC12715", "stable assay Renilla, run 1": 5108, "stable assay firefly, run 1": 3.12e5}
{"gene knocked down": "ich", "dsRNA": "DRSC14448", "stable assay Renilla, run 1": 6632, "stable assay firefly, run 1": 4.14e5}
{"gene knocked down": "Dph2", "dsRNA": "DRSC16222", "stable assay Renilla, run 1": 7252, "stable assay firefly, run 1": 4.20e5}
{"gene knocked down": "Patj", "dsRNA": "DRSC08712", "stable assay Renilla, run 1": 9074, "stable assay firefly, run 1": 3.51e5}
{"gene knocked down": "a6", "dsRNA": "DRSC18733", "stable assay Renilla, run 1": 8387, "stable assay firefly, run 1": 5.60e5}
{"gene knocked down": "dbr", "dsRNA": "DRSC00274", "stable assay Renilla, run 1": 10753, "stable assay firefly, run 1": 4.51e5}
{"gene knocked down": "IA-2", "dsRNA": "DRSC00304", "stable assay Renilla, run 1": 12965, "stable assay firefly, run 1": 3.45e5}
{"gene knocked down": "IA-2", "dsRNA": "DRSC00652", "stable assay Renilla, run 1": 14305, "stable assay firefly, run 1": 6.67e5}
{"gene knocked down": "IA-2", "dsRNA": "DRSC23335", "stable assay Renilla, run 1": 3603, "stable assay firefly, run 1": 2.68e5}
{"gene knocked down": "Tb", "dsRNA": "DRSC15815", "stable assay Renilla, run 1": 6520, "stable assay firefly, run 1": 4.03e5}
{"gene knocked down": "CG2006 + Spase12", "dsRNA": "DRSC14316", "stable assay Renilla, run 1": 6222, "stable assay firefly, run 1": 5.75e5}
{"gene knocked down": "CG17141", "dsRNA": "DRSC15178", "stable assay Renilla, run 1": 5675, "stable assay firefly, run 1": 2.64e5}
{"gene knocked down": "Sec71", "dsRNA": "DRSC01893", "stable assay Renilla, run 1": 6586, "stable assay firefly, run 1": 3.13e5}
{"gene knocked down": "CG32454", "dsRNA": "DRSC11652", "stable assay Renilla, run 1": 8879, "stable assay firefly, run 1": 2.97e5}
{"gene knocked down": "Alg13", "dsRNA": "DRSC14864", "stable assay Renilla, run 1": 4335, "stable assay firefly, run 1": 5.00e5}
